In this test the target is Melatonin receptor (Gallus gallus) (UniProt P49288+P51050+P49285). The note with it: Coturnix.

The chains behind the UniProt entries cited, without tags or fusion partners. Where a name states a change or a piece, a line headed by the entry shows the natural chain unless it says otherwise.
UniProt P49288: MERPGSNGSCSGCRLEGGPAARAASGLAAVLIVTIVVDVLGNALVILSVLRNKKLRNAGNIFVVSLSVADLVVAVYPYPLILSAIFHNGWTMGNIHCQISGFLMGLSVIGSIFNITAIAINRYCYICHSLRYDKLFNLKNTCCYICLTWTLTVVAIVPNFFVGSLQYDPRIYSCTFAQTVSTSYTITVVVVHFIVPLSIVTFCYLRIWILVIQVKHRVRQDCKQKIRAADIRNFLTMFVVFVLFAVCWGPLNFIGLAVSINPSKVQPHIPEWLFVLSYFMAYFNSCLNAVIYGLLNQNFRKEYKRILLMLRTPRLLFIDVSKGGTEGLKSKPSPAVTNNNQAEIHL
UniProt P51050: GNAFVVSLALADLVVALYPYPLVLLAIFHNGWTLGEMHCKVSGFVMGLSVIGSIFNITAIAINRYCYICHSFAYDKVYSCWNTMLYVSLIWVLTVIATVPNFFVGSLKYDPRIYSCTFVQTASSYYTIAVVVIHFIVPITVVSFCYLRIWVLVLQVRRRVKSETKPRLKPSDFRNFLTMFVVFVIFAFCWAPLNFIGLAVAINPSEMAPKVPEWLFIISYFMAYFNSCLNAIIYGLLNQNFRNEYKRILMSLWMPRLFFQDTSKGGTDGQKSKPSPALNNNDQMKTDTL
UniProt P49285, whole entry, looked up: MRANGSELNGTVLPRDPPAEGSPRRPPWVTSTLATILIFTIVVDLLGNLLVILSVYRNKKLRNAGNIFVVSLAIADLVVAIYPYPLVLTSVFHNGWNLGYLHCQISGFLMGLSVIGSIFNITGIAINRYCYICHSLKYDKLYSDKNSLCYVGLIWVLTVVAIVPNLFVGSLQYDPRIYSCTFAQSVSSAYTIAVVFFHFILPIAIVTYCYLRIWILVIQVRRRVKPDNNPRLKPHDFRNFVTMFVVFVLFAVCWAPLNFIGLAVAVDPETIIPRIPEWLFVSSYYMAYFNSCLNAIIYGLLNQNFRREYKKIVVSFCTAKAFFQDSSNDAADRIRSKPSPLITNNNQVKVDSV

Turning to `CC(=O)NCCc1c[nH]c2cc(F)ccc12`, the pRA is -2.37.
